Values after ≈ are worked out from the molar mass of the structure shown.
Test system: S. aureus ATCC 29213
Assay: antibiotic susceptibility testing using the cell culture test device (DRAST), reference strain
Assay type: cell-based
Conditions: Staphylococcus aureus, ATCC29213, observed until 6 h
Text: Referring first to (a) of FIG. 4, a liquid medium containing a gelling agent is mixed with a biological agent to prepare a mixture solution as a first fluid. The liquid medium may include at least about 95% by weight of water and can be solidified due to the presence of the gelling agent. As the gelling agent, there may be exemplified agar, agarose, gelatin, alginate, collagen or fibrin. The use of agar or agarose is preferred. For example, agar may be used in an amount of 0.5 to 4% by weight in the liquid medium. The liquid medium usually requires no nutrients. In some examples, however, the liquid medium may include nutrients. The liquid medium may be a solution including a medium stimulating the division of particular cells.
Referring next to (b) of FIG. 4, the mixture solution is provided to a recess 421 formed at the bottom of a first sub-well. The mixture solution may be loaded in an amount corresponding to the volume of the recess of the first sub-well. The volume of the mixture solution loaded into the recess of the first sub-well is preferably from 10 μl to 200 μl, more preferably from 10 μl to 150 μl. If the volume of the mixture solution loaded into the first sub-well is less than the lower limit, the density of cells in the mixture solution is low, making it difficult to observe the cells. […]

MIC: 1 µg/mL (≈ 2.86 µM)
Structure (SMILES): CC1(C)S[C@@H]2[C@H](NC(=O)[C@H](N)c3ccccc3)C(=O)N2[C@H]1C(=O)O [ampicillin]

Source: US11377679B2, “Multi-well-based cell culture test device for rapid antibiotic susceptibility testing” (priority 2016, dated 2022)
